{
  "sequences": {"note": "By UniProt entry, the sequences of proteins in these tests, tags left out. Where a name states a change or a piece, a line headed by the entry shows the natural chain unless it says otherwise.", "UniProt Q9UNA4": "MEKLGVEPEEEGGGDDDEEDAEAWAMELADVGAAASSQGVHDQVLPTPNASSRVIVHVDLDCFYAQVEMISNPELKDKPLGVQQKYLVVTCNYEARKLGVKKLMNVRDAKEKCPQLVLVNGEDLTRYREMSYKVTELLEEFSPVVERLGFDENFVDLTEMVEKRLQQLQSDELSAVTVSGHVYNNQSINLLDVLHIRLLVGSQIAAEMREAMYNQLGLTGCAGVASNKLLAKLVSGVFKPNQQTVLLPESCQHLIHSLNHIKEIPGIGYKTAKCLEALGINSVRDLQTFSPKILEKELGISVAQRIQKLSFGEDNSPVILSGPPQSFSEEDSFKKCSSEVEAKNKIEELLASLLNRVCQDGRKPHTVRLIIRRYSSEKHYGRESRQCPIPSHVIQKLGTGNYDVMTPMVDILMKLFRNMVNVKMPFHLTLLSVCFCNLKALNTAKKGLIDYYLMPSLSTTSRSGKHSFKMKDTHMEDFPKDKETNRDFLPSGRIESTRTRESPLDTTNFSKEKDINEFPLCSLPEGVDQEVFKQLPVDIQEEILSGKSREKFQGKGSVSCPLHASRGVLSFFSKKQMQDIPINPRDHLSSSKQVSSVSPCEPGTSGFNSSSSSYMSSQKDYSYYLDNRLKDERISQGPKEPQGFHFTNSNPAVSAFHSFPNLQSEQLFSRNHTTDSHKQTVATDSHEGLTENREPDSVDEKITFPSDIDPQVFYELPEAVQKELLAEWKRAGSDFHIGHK"},
  "source": "PubChem BioAssay AID588590",
  "about": "(National Center for Advancing Translational Sciences (NCATS), 2011)",
  "note": "The campaign covered roughly 390,000 compounds. About 4,000 (1%) were called active. The inconclusive results got no clear call from the source; some entries with a clear call stand among them for comparison. The call rests on the fitted dose curve; in most records, active means well fitted inhibition curve with a large enough effect; inconclusive means small, poorly fitted or top-dose-only effect, or another doubt; inactive means no such curve, though single readings can be large or run the other way. Potencies of inconclusive entries are doubtful fits and often do not repeat. Potency means the concentration at half of the fitted maximal effect.",
  "data": [
    {"target": "DNA polymerase iota (Homo sapiens) (UniProt Q9UNA4)", "assay": "qHTS for Inhibitors of Polymerase Iota", "conditions": "Pol iota fluorescent replication assay, 10 min; series mostly up to 115 µM; activity, negative = inhibition: at the top concentration", "outline": "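Pol iota at 10 nM preincubated 15 min with compounds at room temperature; reaction started with fluorescent substrate, 50 nM final. Fluorescence read kinetically at 0 and 10 min; buffer-only wells as negative control.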", "values": [
      {"compound": "O=c1c(C(c2c(O)nc3n(c2=O)CCS3)c2cccc3ccccc23)c(O)nc2n1CCS2", "Potency": "inconclusive: 7.94 µM [inhibitor, partial curve, poor fit]"},
      {"compound": "O=C(COC(=O)/C=C/c1ccc(F)cc1)Nc1cccc(S(=O)(=O)N2CCCC2)c1", "activity, negative = inhibition": "inactive: 17%"},
      {"compound": "COc1cccc2[nH]c(C(=O)NN)c(N)c12", "Potency": "inconclusive: 31.6 µM [inhibitor, single point]"},
      {"compound": "CCOc1ccccc1NC(=O)CN1C(=O)COc2ccc(S(=O)(=O)Nc3ccccc3)cc21", "Potency": "inconclusive: 79.4 µM [inhibitor, single point]"},
      {"compound": "CN(Cc1cc2ccccc2[nH]c1=O)S(C)(=O)=O", "Potency": "inconclusive: 79.4 µM [inhibitor, partial curve]"},
      {"compound": "CCNC1=C(Cl)C(=O)c2ccccc2C1=O", "activity, negative = inhibition": "inactive: -2.68%"},
      {"compound": "COc1ccc(CN2C(=O)c3cccnc3C2Nc2cc(Cl)c(OC)cc2OC)cc1", "note": "(configuration not stated)", "Potency": "inconclusive: 2.24 µM [inhibitor, full curve, poor fit]"},
      {"compound": "O=C1NN(c2cccc(Br)c2)C(=O)/C1=C/c1cccs1", "Potency": "inconclusive: 8.91 µM [inhibitor, full curve, poor fit]"},
      {"compound": "Cc1cc(C)c2nc(N3C(=O)C(O)=C(C(=O)c4ccco4)C3c3ccc(O)cc3)sc2c1", "note": "(configuration not stated)", "Potency": "inconclusive: 25.1 µM [inhibitor, partial curve, poor fit]"},
      {"compound": "O=S(=O)(/N=C(/Sc1ccc(Cl)cc1)c1ccccc1)c1ccccc1", "activity, negative = inhibition": "inactive: -14.8%"},
      {"compound": "O=C(Cn1c(=O)nc(-c2ccccc2F)c2cc(Cl)ccc21)Nc1ccccc1C(F)(F)F", "activity, negative = inhibition": "inactive: 11.6%"},
      {"compound": "NC1=NC(=O)C(=Cc2ccccc2)S1", "activity, negative = inhibition": "inactive: -18.1%"},
      {"compound": "O=C(Nc1ccc(S(=O)(=O)N2CCCCC2c2cccnc2)cc1)c1ccc(F)cc1", "note": "(configuration not stated)", "activity, negative = inhibition": "inactive: 20.5%"},
      {"compound": "O=c1oc(CCCO)cc2ccc(Br)cc12", "Potency": "inconclusive: 39.8 µM [inhibitor, single point]"},
      {"compound": "O=[N+]([O-])c1ccc2nc(NS(=O)(=O)c3ccc(Cl)cc3)sc2c1", "Potency": "inconclusive: 14.1 µM [inhibitor, full curve, poor fit]"},
      {"compound": "O=C(NCC(c1ccco1)N1CCc2ccccc21)C(=O)Nc1ccc(F)cc1F", "note": "(configuration not stated)", "activity, negative = inhibition": "inactive: 52%"},
      {"compound": "c1ccc(-c2nc3ccccc3[nH]2)cc1", "Potency": "inconclusive: 20 µM [inhibitor, partial curve, poor fit]"},
      {"compound": "CCc1ccccc1NC(=O)CSc1nc2[nH]c(=O)cc(O)c2s1", "Potency": "inconclusive: 50.1 µM [inhibitor, partial curve]"},
      {"compound": "COC(=O)C1=C(C)NC(C)=C([N+](=O)[O-])C1c1ccccc1C(F)(F)F", "note": "(configuration not stated)", "Potency": "inactive"},
      {"compound": "O=C1N/C(=C/c2cccn2-c2ccc(F)cc2)C(=O)N1Cc1ccccc1", "activity, negative = inhibition": "inactive: -15.9% [at 58.9 µM]"},
      {"compound": "Cc1ccc(-c2noc(CNCCCN(C)C)n2)cc1", "Potency": "inconclusive: 6.31 µM [inhibitor, partial curve, poor fit]"},
      {"compound": "Cc1ccc(C)c(NC(=O)N2CCc3cc(S(=O)(=O)N4CCC(C)CC4)ccc32)c1", "activity, negative = inhibition": "inactive: 27.5%"},
      {"compound": "COC(=O)c1sc(NC(=O)c2ccc([N+](=O)[O-])o2)c(C#N)c1C", "Potency": "inconclusive: 35.5 µM [inhibitor, partial curve, poor fit]"},
      {"compound": "CCN1CCCC1CNC(=O)c1cc2c(=O)n(C)c3ccccc3c2n1C", "note": "(configuration not stated)", "Potency": "inconclusive: 50.1 µM [inhibitor, partial curve]"},
      {"compound": "COc1ccc(Cl)cc1NC(=O)C1CCN(S(=O)(=O)c2ccc3c(c2)CCCN3C(=O)C2CCC2)CC1", "activity, negative = inhibition": "inactive: 16%"},
      {"compound": "N#Cc1c2n(c(=S)n(-c3ccc(F)cc3)c1=O)CCCCC2", "Potency": "inconclusive: 100 µM [inhibitor, single point]"},
      {"compound": "CN(C)c1ccc(/C=C2\\C=Cc3ccccc32)cc1Br", "Potency": "inconclusive: 79.4 µM [inhibitor, partial curve, poor fit]"},
      {"compound": "O=C1C2CC=C(Cl)CC2C(=O)N1CCc1c[nH]c2ccccc12", "note": "(configuration not stated)", "Potency": "inconclusive: 63.1 µM [inhibitor, partial curve, poor fit]"},
      {"compound": "CCc1ccc(S(=O)(=O)c2nnn3c2nc(NCc2cccc(OC)c2)c2cc(Cl)ccc23)cc1", "activity, negative = inhibition": "inactive: 15.1%"},
      {"compound": "C=CCN1C=C2C(=O)C(C)(OC(=O)c3cccs3)C(=O)C=C2C=C1CCCC(=O)OC", "note": "(configuration not stated)", "Potency": "inconclusive: 22.4 µM [inhibitor, single point]"},
      {"compound": "O=C(O)c1ccc(-n2c(/C=C/c3ccccc3)nc3ccccc3c2=O)cc1", "Potency": "inconclusive: 44.7 µM [inhibitor, full curve, poor fit]"},
      {"compound": "COc1cccc(-c2cc(C(=O)Nc3c(C)nn(Cc4ccccc4)c3C)no2)c1", "Potency": "inconclusive: 79.4 µM [inhibitor, partial curve, poor fit]"},
      {"compound": "CC1=C(c2ccc(C)c(C)c2)S(=O)(=O)N=C1N1CCC(C(=O)Nc2ccc(Cl)cc2)CC1", "Potency": "inconclusive: 79.4 µM [inhibitor, single point]"},
      {"compound": "CC1(C)c2[nH]c3ccccc3c2C[C@H]2C(=O)N(Cc3ccc(F)cc3)C(=O)N21", "Potency": "inconclusive: 28.2 µM [inhibitor, partial curve, poor fit]"},
      {"compound": "Cc1cc(C)c(C)c(S(=O)(=O)Nc2ccccc2N2CCOCC2)c1C", "activity, negative = inhibition": "inactive: -4.78%"},
      {"compound": "Cc1ccc(N(Cc2cc3ccc(C)cc3[nH]c2=O)C(=O)c2cccs2)cc1", "Potency": "inconclusive: 20 µM [inhibitor, partial curve, poor fit]"},
      {"compound": "O=C(COC(=O)CCN1C(=O)C2CC=CCC2C1=O)Nc1ccc([N+](=O)[O-])cc1", "note": "(configuration not stated)", "Potency": "inconclusive: 28.2 µM [inhibitor, partial curve]"},
      {"compound": "Nc1nnc(SCC(=O)N2CCN(c3ccccc3)CC2)s1", "Potency": "inconclusive: 3.98 µM [inhibitor, partial curve, poor fit]"},
      {"compound": "CCOc1ccc(S(=O)(=O)N(C(=O)c2ccco2)c2cc3sc(=O)oc3c3ccccc23)cc1", "Potency": "inconclusive: 3.98 µM [inhibitor, full curve, poor fit]"},
      {"compound": "C/C(CC(=O)Nc1ccc2ccccc2c1)=N\\NC(=O)c1ccc(O)c(O)c1", "Potency": "inconclusive: 25.1 µM [inhibitor, full curve]"},
      {"compound": "CCCn1nc(C(=O)Nc2ccc(S(=O)(=O)Nc3nccs3)cc2)c2ccccc2c1=O", "Potency": "inconclusive: 31.6 µM [inhibitor, partial curve, poor fit]"},
      {"compound": "CN(C)c1ccc(NC2=C([N+](=O)[O-])CS(=O)(=O)C2)cc1", "Potency": "inconclusive: 56.2 µM [inhibitor, full curve, poor fit]"},
      {"compound": "CCOc1ccccc1Nc1nc(-c2ccc(C)cc2)c(CC(=O)O)s1", "activity, negative = inhibition": "inactive: -9.86%"},
      {"compound": "O=c1[nH]c2ccc(NCc3ccc(-c4ccc(Cl)cc4)o3)cc2[nH]1", "Potency": "inconclusive: 100 µM [inhibitor, partial curve, poor fit]"},
      {"compound": "COc1cc2c(C#N)c(N3CCCCC3)nc(N)c2c(N)n1", "Potency": "inconclusive: 28.2 µM [inhibitor, partial curve]"},
      {"compound": "CC1CN(C(=O)CCC(=O)N2CCOCC2)c2ccccc2O1", "note": "(configuration not stated)", "activity, negative = inhibition": "inactive: 7.87%"},
      {"compound": "O=C(NCC(=O)N1CCN(c2ccccc2O)CC1)c1cccs1", "Potency": "inconclusive: 44.7 µM [inhibitor, partial curve]"},
      {"compound": "CCn1cc(CN2N=C(C)CC2c2ccccc2)c(C)n1", "note": "(configuration not stated)", "Potency": "inconclusive: 89.1 µM [inhibitor, partial curve, poor fit]"},
      {"compound": "Cc1ccc2nc(N3C(=O)C(O)=C(C(=O)c4ccc(C)o4)C3c3cccc(O)c3)sc2c1", "note": "(configuration not stated)", "Potency": "inconclusive: 17.8 µM [inhibitor, partial curve, poor fit]"},
      {"compound": "Cc1ccccc1/C=N/NC(=O)Cc1ccc(Cl)cc1", "activity, negative = inhibition": "inactive: 11%"},
      {"compound": "CC(=O)c1ccc(Nc2nc3ccccc3nc2-n2nc(C)cc2C)cc1", "activity, negative = inhibition": "inactive: 16.1%"},
      {"compound": "CC(=O)c1cccc(NC(=O)Cn2c(=O)oc3cc(S(=O)(=O)NC4CCCC4)ccc32)c1", "activity, negative = inhibition": "inactive: 38.2%"},
      {"compound": "O=C1C=C(c2ccccc2)C(=O)N1Nc1ccccc1", "activity, negative = inhibition": "inactive: 11.4%"},
      {"compound": "Cc1ccccc1N1CC(C(=O)Nc2nnc(SCCC3OCCO3)s2)CC1=O", "note": "(configuration not stated)", "Potency": "inconclusive: 14.1 µM [inhibitor, full curve]"},
      {"compound": "Cc1ccc(C)c(Cn2c3ccccc3c3cnn(CC(=O)NCC(C)c4ccccc4)c(=O)c32)c1", "note": "(configuration not stated)", "Potency": "inconclusive: 89.1 µM [inhibitor, partial curve, poor fit]"},
      {"compound": "CCOc1ccc(NC(=O)CCC(=O)NNC(=O)COc2ccc(C)cc2Br)cc1", "Potency": "active: 70.8 µM"},
      {"compound": "CCOC(=O)N1CCN(C(=O)Cn2ncc3ccccc32)CC1", "Potency": "inconclusive: 70.8 µM [inhibitor, single point]"},
      {"compound": "Cc1ccc(Cl)cc1NC(=O)Cn1nc(-c2cccs2)ccc1=O", "Potency": "inconclusive: 17.8 µM [inhibitor, full curve]"},
      {"compound": "CC1CCCC(C)N1C(=O)COC(=O)c1ccccc1O", "note": "(configuration not stated)", "activity, negative = inhibition": "inactive: 5.71%"},
      {"compound": "CCOC(=O)c1[nH]c(C)c(CCC(=O)NCc2cccc(C)c2)c1C", "activity, negative = inhibition": "inactive: 6.1%"},
      {"compound": "CCOC(=O)c1c(C)[nH]c(C)c1S(=O)(=O)N1CCCC(C(=O)Nc2ccc(C)c(N(C)C)c2)C1", "note": "(configuration not stated)", "activity, negative = inhibition": "inactive: 22.4%"},
      {"compound": "CCCCOC(=O)c1ccc(NC(=O)Cc2coc3c(C)c(C)ccc23)cc1", "activity, negative = inhibition": "inactive: 3.3%"},
      {"compound": "Cc1c(Cl)cccc1NC(=O)CSc1ncc(S(=O)(=O)c2ccc(C(C)C)cc2)c(=O)[nH]1", "Potency": "inconclusive: 63.1 µM [inhibitor, partial curve, poor fit]"},
      {"compound": "Cc1ccc(S(=O)(=O)CCC(=O)Nc2sccc2C(N)=O)cc1", "Potency": "inconclusive: 22.4 µM [inhibitor, full curve, poor fit]"},
      {"compound": "CCCOC1CCCN(Cc2nc(-c3ccc(C(=O)OC)cc3)no2)C1", "note": "(configuration not stated)", "activity, negative = inhibition": "inactive: 47.1%"},
      {"compound": "Cc1ccc(O)c(/C=N/NC(=O)COc2ccc3c(C)cc(=O)oc3c2)c1", "Potency": "inconclusive: 20 µM [inhibitor, full curve, poor fit]"},
      {"compound": "COc1cc(NS(=O)(=O)c2ccc(NC(=S)NC(=O)/C=C/c3ccc(OC)c(OC)c3)cc2)ncn1", "Potency": "inconclusive: 15.8 µM [inhibitor, partial curve, poor fit]"}
    ]}
  ]
}
